Measurements published in patent publication US20220049017A1.
These are yes or no findings as the source states them, for the method shown. Some results given as binding are weak or reduced against the parent protein; the word gives no strength.

Protein sequences, listed by entry. Tags and fused reporters are not part of them. Lines headed by an entry give the natural chain unless they say otherwise; changes in a name come on top.
UniProt Q8NBP7: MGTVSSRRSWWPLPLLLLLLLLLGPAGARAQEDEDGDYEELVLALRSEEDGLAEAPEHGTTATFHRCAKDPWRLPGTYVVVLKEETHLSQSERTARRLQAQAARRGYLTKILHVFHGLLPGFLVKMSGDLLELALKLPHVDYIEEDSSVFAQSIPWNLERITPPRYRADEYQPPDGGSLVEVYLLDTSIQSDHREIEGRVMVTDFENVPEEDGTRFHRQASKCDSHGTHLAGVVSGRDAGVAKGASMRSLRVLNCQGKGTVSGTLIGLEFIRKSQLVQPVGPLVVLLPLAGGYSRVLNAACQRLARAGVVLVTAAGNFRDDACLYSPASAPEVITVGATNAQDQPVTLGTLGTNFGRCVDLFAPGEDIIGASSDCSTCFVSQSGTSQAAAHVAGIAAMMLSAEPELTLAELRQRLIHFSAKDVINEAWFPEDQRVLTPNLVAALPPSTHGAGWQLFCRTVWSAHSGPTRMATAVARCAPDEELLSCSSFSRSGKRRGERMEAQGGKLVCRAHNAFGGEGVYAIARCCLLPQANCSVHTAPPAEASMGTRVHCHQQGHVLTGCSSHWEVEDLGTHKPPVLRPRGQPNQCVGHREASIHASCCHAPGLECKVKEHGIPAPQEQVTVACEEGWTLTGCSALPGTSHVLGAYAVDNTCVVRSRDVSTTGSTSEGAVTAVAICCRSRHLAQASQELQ

Target: human PCSK9 reference (human) (UniProt Q8NBP7)
Test: ProteOn SPR

Binder	binding
CL-274698 (antibody, V domains shown) VH: QVQLQESGPGLVKPSGTLSLTCAVSGGSISSSKWWSWVRQPPGKGLEWIGETHYSGSTNYNPSLKSRVTISVDKSKNQFSLKLRSVTAADTAVYYCARVGATENFWGQGTLVTVSS VL: EIVLTQSPATLSLSPGERATLSCRASQSVFRYLAWYQQKPGQAPRLLIYDASTRATDIPARFSGSGSGTDFTLTISSLEPEDFAVYYCQQRSNWPPTFGQGTKVEIK	binds
CL-148219 QLT mutant (antibody, V domains shown) VH: QVHLQESGPGLVKPSETLSLTCTVSGGSISSYYWSWIRQYPGKGLEWIGYISYSGSSNYNPSLKRRVTISRDTSKNQFSLQLTSVIAADTAVYYCARNLMIRGAYGMDVWGQGTTVTVSS VL: DTVMTQSPLSLPVTPGEPASISCRSSQSLLHSNGYNYLDWYLQKAGQSPQLLIYLGSNRASGVPDRFSGSVSGTDFTLKISRVEAEDVGIYYCMQALQTPFTFGPGTKVDIK	binds
